# Test results reported in the supplement of paper PMC8728848.
# The other results are listed elsewhere or left out.
# How the values were obtained:
# Assay in all cases: glycan array binding signal (z-score within array); higher = stronger binding
# Details in all cases: glycan notation: IUPAC condensed, linker removed
# [1] = molecular target: Man(a1-2)Man(a1-3)[Man(a1-2)Man(a1-6)]Man(a1-6)[Man(a1-2)Man(a1-2)Man(a1-3)]Man
# Summary of the method: (§1)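 The binding signal is a Z-score computed within each array. Data were drawn from 3228 arrays in the Consortium for Functional Glycomics database, restricted to those with a known protein sequence. Scores were averaged over arrays of the same protein sequence at different concentrations or buffers, and over linkers, and negative values can be taken as non-binding.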
# [2] = molecular target: Man(a1-2)Man(a1-3)[Man(a1-2)Man(a1-6)]Man(a1-6)[Man(a1-2)Man(a1-2)Man(a1-3)]Man(b1-4)GlcNAc(b1-4)GlcNAc
# Summary of the method: as §1
# [3] = molecular target: Man(a1-2)Man(a1-3)[Man(a1-6)]Man(a1-6)[Man(a1-2)Man(a1-3)]Man(b1-4)GlcNAc(b1-4)GlcNAc
# Summary of the method: as §1
# [4] = molecular target: Man(a1-2)Man(a1-6)[Man(a1-3)]Man(a1-6)[Man(a1-2)Man(a1-2)Man(a1-3)]Man
# Summary of the method: as §1
# [5] = molecular target: Man(a1-2)Man(a1-6)[Man(a1-3)]Man(a1-6)[Man(a1-2)Man(a1-2)Man(a1-3)]Man(b1-4)GlcNAc(b1-4)GlcNAc
# Summary of the method: as §1
# [6] = molecular target: Man(a1-3)[Man(a1-6)]Man
# Summary of the method: as §1
# [7] = molecular target: Man(a1-3)[Man(a1-6)]Man(a1-6)[Man(a1-2)Man(a1-3)]Man(b1-4)GlcNAc(b1-4)GlcNAc
# Summary of the method: as §1
# [8] = molecular target: Man(a1-3)[Man(a1-6)]Man(a1-6)[Man(a1-3)]Man
# Summary of the method: as §1
# [9] = molecular target: Man(a1-3)[Man(a1-6)]Man(a1-6)[Man(a1-3)]Man(b1-4)GlcNAc(b1-4)GlcNAc
# Summary of the method: as §1
# [10] = molecular target: Man(a1-3)[Man(a1-6)]Man(b1-4)GlcNAc(b1-4)GlcNAc
# Summary of the method: as §1
# [11] = molecular target: Man(a1-3)[Man(a1-6)]Man(b1-4)GlcNAc(b1-4)[Fuc(a1-6)]GlcNAc
# Summary of the method: as §1
# [12] = molecular target: Man(a1-6)Man
# Summary of the method: as §1
# [13] = molecular target: Man(b1-4)GlcNAc
# Summary of the method: as §1
# [14] = molecular target: MurNAc(b1-4)GlcNAc
# Summary of the method: as §1
# [15] = molecular target: Neu5Ac(a2-3)Gal
# Summary of the method: as §1
# [16] = molecular target: Neu5Ac(a2-3)Gal(b1-3)GalNAc
# Summary of the method: as §1
# [17] = molecular target: Neu5Ac(a2-3)Gal(b1-3)GalNAc(b1-3)Gal(a1-4)Gal(b1-4)Glc
# Summary of the method: as §1
# [18] = molecular target: Neu5Ac(a2-3)Gal(b1-3)GalNAc(b1-4)Gal(b1-4)Glc
# Summary of the method: as §1
# [19] = molecular target: Neu5Ac(a2-3)Gal(b1-3)GalNAc(b1-4)[Neu5Ac(a2-3)]Gal(b1-4)Glc
# Summary of the method: as §1
# [20] = molecular target: Neu5Ac(a2-3)Gal(b1-3)GalNAc(b1-4)[Neu5Ac(a2-8)Neu5Ac(a2-3)]Gal(b1-4)Glc
# Summary of the method: as §1
# [21] = molecular target: Neu5Ac(a2-3)Gal(b1-3)GalNAc6S
# Summary of the method: as §1
# [22] = molecular target: Neu5Ac(a2-3)Gal(b1-3)GlcNAc
# Summary of the method: as §1
# [23] = molecular target: Neu5Ac(a2-3)Gal(b1-3)GlcNAc(b1-2)Man
# Summary of the method: as §1
# [24] = molecular target: Neu5Ac(a2-3)Gal(b1-3)GlcNAc(b1-2)Man(a1-3)[GlcNAc(b1-4)][Neu5Ac(a2-3)Gal(b1-3)GlcNAc(b1-2)Man(a1-6)]Man(b1-4)GlcNAc(b1-4)GlcNAc
# Summary of the method: as §1
# [25] = molecular target: Neu5Ac(a2-3)Gal(b1-3)GlcNAc(b1-2)Man(a1-3)[Neu5Ac(a2-3)Gal(b1-3)GlcNAc(b1-2)Man(a1-6)]Man(b1-4)GlcNAc(b1-4)GlcNAc
# Summary of the method: as §1
# [26] = molecular target: Neu5Ac(a2-3)Gal(b1-3)GlcNAc(b1-2)[Neu5Ac(a2-3)Gal(b1-3)GlcNAc(b1-4)]Man(a1-6)[Neu5Ac(a2-3)Gal(b1-3)GlcNAc(b1-2)Man(a1-3)]Man(b1-4)GlcNAc(b1-4)GlcNAc
# Summary of the method: as §1
# [27] = molecular target: Neu5Ac(a2-3)Gal(b1-3)GlcNAc(b1-3)Gal(b1-3)GlcNAc
# Summary of the method: as §1
# [28] = molecular target: Neu5Ac(a2-3)Gal(b1-3)GlcNAc(b1-3)Gal(b1-4)GlcNAc
# Summary of the method: as §1
# [29] = molecular target: Neu5Ac(a2-3)Gal(b1-3)GlcNAc(b1-3)GalNAc
# Summary of the method: as §1
# [30] = molecular target: Neu5Ac(a2-3)Gal(b1-3)GlcNAc(b1-6)GalNAc
# Summary of the method: as §1
# [31] = molecular target: Neu5Ac(a2-3)Gal(b1-3)GlcNAc6S
# Summary of the method: as §1
# [32] = molecular target: Neu5Ac(a2-3)Gal(b1-3)[Fuc(a1-4)]GlcNAc
# Summary of the method: as §1
# [33] = molecular target: Neu5Ac(a2-3)Gal(b1-3)[Fuc(a1-4)]GlcNAc(b1-3)Gal(b1-3)[Fuc(a1-4)]GlcNAc
# Summary of the method: as §1
# [34] = molecular target: Neu5Ac(a2-3)Gal(b1-3)[Fuc(a1-4)]GlcNAc(b1-3)Gal(b1-4)[Fuc(a1-3)]GlcNAc
# Summary of the method: as §1
# [35] = molecular target: Neu5Ac(a2-3)Gal(b1-3)[GlcNAc(b1-6)]GalNAc
# Summary of the method: as §1
# [36] = molecular target: Neu5Ac(a2-3)Gal(b1-3)[Neu5Ac(a2-6)]GalNAc
# Summary of the method: as §1
# [37] = molecular target: Neu5Ac(a2-3)Gal(b1-3)[Neu5Ac(a2-6)]GlcNAc(b1-3)[Fuc(a1-3)[Gal(b1-4)]GlcNAc(b1-6)]Gal(b1-4)Glc
# Summary of the method: as §1
# [38] = molecular target: Neu5Ac(a2-3)Gal(b1-3)]Neu5Ac(a2-3)Gal(b1-4)]GlcNAc
# Summary of the method: as §1
# [39] = molecular target: Neu5Ac(a2-3)Gal(b1-4)Glc
# Summary of the method: as §1
# [40] = molecular target: Neu5Ac(a2-3)Gal(b1-4)GlcNAc
# Summary of the method: as §1
# [41] = molecular target: Neu5Ac(a2-3)Gal(b1-4)GlcNAc(b1-2)Man
# Summary of the method: as §1
# [42] = molecular target: Neu5Ac(a2-3)Gal(b1-4)GlcNAc(b1-2)Man(a1-3)[GlcNAc(b1-4)][Neu5Ac(a2-3)Gal(b1-4)GlcNAc(b1-2)Man(a1-6)]Man(b1-4)GlcNAc(b1-4)GlcNAc
# Summary of the method: as §1
# [43] = molecular target: Neu5Ac(a2-3)Gal(b1-4)GlcNAc(b1-2)Man(a1-3)[Neu5Ac(a2-3)Gal(b1-4)GlcNAc(b1-2)Man(a1-6)]Man(b1-4)GlcNAc(b1-4)GlcNAc
# Summary of the method: as §1
# [44] = molecular target: Neu5Ac(a2-3)Gal(b1-4)GlcNAc(b1-2)Man(a1-3)[Neu5Ac(a2-3)Gal(b1-4)GlcNAc(b1-2)Man(a1-6)]Man(b1-4)GlcNAc(b1-4)[Fuc(a1-6)]GlcNAc
# Summary of the method: as §1
# [45] = molecular target: Neu5Ac(a2-3)Gal(b1-4)GlcNAc(b1-2)Man(a1-3)[Neu5Ac(a2-6)Gal(b1-4)GlcNAc(b1-2)Man(a1-6)]Man(b1-4)GlcNAc(b1-4)GlcNAc
# Summary of the method: as §1
binder,measurement,setting,value
"YghJ (Escherichia coli), E3PJ90 (protein) MNKKFKYKKSLLAAILSATLLAGCDGGGSGSSSDTPPVDSGTGSLPEVKPDPTPNPEPTPEPTPDPEPTPEPIPDPEPTPEPEPEPVPTKTGYLTLGGSQRVTGATCNGESSDGFTFKPGEDVTCVAGNTTIATFNTQSEAARSLRAVEKVSFSLEDAQELAGSDDKKSNAVSLVTSSNSCPANTEQVCLTFSSVIESKRFDSLYKQIDLAPEEFKKLVNEEVENNAATDKAPSTHTSPVVPVTTPGTKPDLNASFVSANAEQFYQYQPTEIILSEGRLVDSQGYGVAGVNYYTNSGRGVTGENGEFSFSWGEAISFGIDTFELGSVRGNKSTIALTELGDEVRGANIDQLIHRYSTTGQNNTRVVPDDVRKVFAEYPNVINEIINLSLSNGATLGEGEQVVNLPNEFIEQFNTGQAKEIDTAICAKTDGCNEARWFSLTTRNVNDGQIQGVINKLWGVDTNYKSVSKFHVFHDSTNFYGSTGNARGQAVVNISNAAFPILMARNDKNYWLAFGEKRAWDKNELAYITEAPSIVRPENVTRETASFNLPFISLGQVGDGKLMVIGNPHYNSILRCPNGYSWNGGVNKDGQCTLNSDPDDMKNFMENVLRYLSNDRWLPDAKSSMTVGTNLETVYFKKHGQVLGNSAPFAFHKDFTGITVKPMTSYGNLNPDEVPLLILNGFEYVTQWGSDPYSIPLRADTSKPKLTQQDVTDLIAYMNKGGSVLIMENVMSNLKEESASGFVRLLDAAGLSMALNKSVVNNDPQGYPDRVRQRRSTPIWVYERYPAVDGKPPYTIDDTTKEVIWKYQQENKPDDKPKLEVASWQEEVEGKQVTQFAFIDEADHKTPESLAAAKQRILDAFPGLEVCKDSDYHYEVNCLEYRPGTDVPVTGGMYVPQYTQLDLSADTAKAMLQAADLGTNIQRLYQHELYFRTNGRQGERLNSVDLERLYQNMSVWLWNETKYRYEEGKEDELGFKTFTEFLNCYTNNAYVGTQCSAELKKSLIDNKMIYGEESSKAGMMNPSYPLNYMEKPLTRLMLGRSWWDLNIKVDVEKYPGVVNTNGETVTQNINLYSAPTKWFAGNMQSTGLWAPAQQEVSIESKSTVPVTVTVALADDLTGREKHEVSLNRPPRVTKTYDLKANDKVTFKVPYGGLIYIKGDSKEVQSADFTFTGVVKAPFYKDGKWQHDLNSPAPLGELESASFVYTTPKKNLNASNYTGGLEQFANDLDTFASSMNDFYGRDSEDGKHRMFTYKNLPGHKHRFANDVQISIGDAHSGYPVMNSSFSPNSTTLPTTPLNDWLIWHEVGHNAAETPLTVPGATEVANNVLALYMQDRYLGKMNRVADDITVAPEYLEESNGQAWARGGAGDRLLMYAQLKEWAEKNFDIKKWYPDGTPLPEFYSEREGMKGWNLFQLMHRKARGDEVSNDKFGGKNYCAESNGNAADTLMLCASWVAQTDLSEFFKKWNPGANAYQLPGASEMSFEGGVSQSAYNTLASLDLPKPEQGPETINQVTEHKMSAE",glycan array binding signal (z-score),[1],0.358
same,glycan array binding signal (z-score),[2],-0.01
same,glycan array binding signal (z-score),[3],-0.163
same,glycan array binding signal (z-score),[4],-2.12
same,glycan array binding signal (z-score),[5],-0.299
same,glycan array binding signal (z-score),[6],-1.45
same,glycan array binding signal (z-score),[7],-1.36
same,glycan array binding signal (z-score),[8],-1.22
same,glycan array binding signal (z-score),[9],-1.53
same,glycan array binding signal (z-score),[10],-0.69
same,glycan array binding signal (z-score),[11],1.51
same,glycan array binding signal (z-score),[12],1.96
same,glycan array binding signal (z-score),[13],0.997
same,glycan array binding signal (z-score),[14],1.93
same,glycan array binding signal (z-score),[15],-1.37
same,glycan array binding signal (z-score),[16],0.058
same,glycan array binding signal (z-score),[17],-1.31
same,glycan array binding signal (z-score),[18],0.186
same,glycan array binding signal (z-score),[19],0.049
same,glycan array binding signal (z-score),[20],0.378
same,glycan array binding signal (z-score),[21],-0.496
same,glycan array binding signal (z-score),[22],0.286
same,glycan array binding signal (z-score),[23],-1.85
same,glycan array binding signal (z-score),[24],-1.12
same,glycan array binding signal (z-score),[25],2.23
same,glycan array binding signal (z-score),[26],-0.007
same,glycan array binding signal (z-score),[27],-1.35
same,glycan array binding signal (z-score),[28],-0.972
same,glycan array binding signal (z-score),[29],-0.159
same,glycan array binding signal (z-score),[30],0.418
same,glycan array binding signal (z-score),[31],-0.847
same,glycan array binding signal (z-score),[32],-0.959
same,glycan array binding signal (z-score),[33],0.951
same,glycan array binding signal (z-score),[34],-0.662
same,glycan array binding signal (z-score),[35],-0.567
same,glycan array binding signal (z-score),[36],-0.685
same,glycan array binding signal (z-score),[37],0.46
same,glycan array binding signal (z-score),[38],0.401
same,glycan array binding signal (z-score),[39],1.44
same,glycan array binding signal (z-score),[40],-0.721
same,glycan array binding signal (z-score),[41],1.72
same,glycan array binding signal (z-score),[42],-1.36
same,glycan array binding signal (z-score),[43],0.306
same,glycan array binding signal (z-score),[44],0.41
same,glycan array binding signal (z-score),[45],-0.105
